Assay results reported in the supplement of paper PMC12823440, “Inhibitors supercharge kinase turnover through native proteolytic circuits” (Nature, 2025).
Structures can show the parent of a compound that is named as a salt. The list shows a part of the results. The calls rarely recur for the same compound in another form.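 Kinases, fused to nanoluciferase, were expressed in K562 cells; luminescence was measured every 4 h from 2 to 18 h as percent of control (DMSO = 100%, positive control = 0%). A time point is decreased if signal falls significantly (2 sigma). Hits were called by the authors by a rule that is not shown; the count of time points alone does not decide it.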

Protein sequences, listed by entry. Tags and fused reporters are not part of them. Lines headed by an entry give the natural chain unless they say otherwise; changes in a name come on top.
UniProt P41240: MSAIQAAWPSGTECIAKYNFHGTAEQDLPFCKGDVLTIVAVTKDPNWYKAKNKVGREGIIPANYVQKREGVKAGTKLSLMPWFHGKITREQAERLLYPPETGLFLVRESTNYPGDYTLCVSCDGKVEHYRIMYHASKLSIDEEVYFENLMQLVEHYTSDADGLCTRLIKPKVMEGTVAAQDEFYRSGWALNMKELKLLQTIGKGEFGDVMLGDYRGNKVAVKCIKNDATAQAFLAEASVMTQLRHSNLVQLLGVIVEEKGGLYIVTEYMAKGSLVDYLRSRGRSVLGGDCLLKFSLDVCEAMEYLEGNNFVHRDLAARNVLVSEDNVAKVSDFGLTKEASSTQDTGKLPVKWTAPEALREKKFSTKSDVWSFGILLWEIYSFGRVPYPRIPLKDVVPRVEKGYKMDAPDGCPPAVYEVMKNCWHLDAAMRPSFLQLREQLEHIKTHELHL

target: CSK (UniProt P41240); test: kinase-Nluc reporter destabilization hit call (1 = scored as downregulated) (binary); higher = compound decreases kinase abundance; conditions: 2 µM; K562; 2-18 h

kinase-Nluc reporter destabilization hit call, inactive:
CCc1nc(C(N)=O)c(Nc2ccc(N3CCC(N4CCN(C)CC4)CC3)c(OC)c2)nc1NC1CCOCC1 [Gilteritinib] 0
CCc1nc(C(N)=O)c(Nc2ccc(N3CCC(N4CCN(C)CC4)CC3)c(OC)c2)nc1NC1CCOCC1 [Gilteritinib hemifumarate] 0
Cc1[nH]c(/C=C2\C(=O)Nc3ccc(F)cc32)c(C)c1C(=O)NCCN1CCCC1 [Toceranib (phosphate)] 0
Cc1[nH]c(/C=C2\C(=O)Nc3ccc(F)cc32)c(C)c1C(=O)NCCN1CCCC1 [Toceranib] 0

same assay, conditions: 2.5 µM; K562; 2-18 h

kinase-Nluc reporter destabilization hit call, inactive:
C=CC(=O)Nc1cc(Nc2nccc(-c3cn(C)c4ccccc34)n2)c(OC)cc1N(C)CCN(C)C [Osimertinib mesylate] 0
c1cc(-c2cnn3cc(-c4ccc(OCCN5CCCCC5)cc4)cnc23)ccn1 [Dorsomorphin] 0
CN(C)C/C=C/C(=O)Nc1cc2c(Nc3ccc(F)c(Cl)c3)ncnc2cc1O[C@H]1CCOC1 [Afatinib (dimaleate)] 0
C=CC(=O)Nc1cc(Nc2nccc(-c3cn(C)c4ccccc34)n2)c(OC)cc1N(C)CCN(C)C [Osimertinib] 0
CN(C)C(=O)c1cc2cnc(Nc3ccc(N4CCNCC4)cn3)nc2n1C1CCCC1 [Ribociclib hydrochloride] 0
COc1ccc(S(=O)(=O)Nc2ccccc2CN(C)C/C=C/c2ccc(Cl)cc2)cc1 [KN-92 (hydrochloride)] 0
COc1ccc(S(=O)(=O)Nc2ccccc2CN(C)C/C=C/c2ccc(Cl)cc2)cc1 [KN-92 (phosphate)] 0

same assay, conditions: 10 µM; K562; 2-18 h

kinase-Nluc reporter destabilization hit call, inactive:
CCS(=O)(=O)N1CCN(c2ccc(Nc3ncc(C(N)=O)c(NC4CC4)n3)cc2)CC1 [Cerdulatinib (hydrochloride)] 0
C[C@@H](N)c1ccc(C(=O)Nc2ccnc3[nH]ccc23)cc1 0
COc1ncc(F)cc1CNc1ccc(Cc2c[nH]c3ncc(C)cc23)c(F)n1 0
CCS(=O)(=O)N1CC(CC#N)(n2cc(-c3ncnc4[nH]ccc34)cn2)C1 [Baricitinib (phosphate)] 0
COC(=O)[C@H](CC(C)C)NC(=O)c1ccc(NC[C@@H](N)CS)cc1-c1cccc2ccccc12 [GGTI298 (Trifluoroacetate)] 0
COCCOc1cc(F)c2c(Nc3ccc(NC(=O)Cn4cc(C(C)C)nn4)cc3)ncnc2c1 [AZD3229 Tosylate] 0
CC(C)(C)n1nc(-c2cccc3ccccc23)c2c(N)ncnc21 [1-Naphthyl PP1] 0
N#CCNC(=O)c1ccc(-c2ccnc(Nc3ccc(N4CCOCC4)cc3)n2)cc1 [Momelotinib sulfate] 0
Cn1ncc(Cl)c1-c1cc(C(=O)N[C@H](CN)Cc2cccc(F)c2)sc1Cl [Afuresertib] 0
CNC(=O)c1ccc(Nc2ncc(C(F)(F)F)c(NCc3nccnc3N(C)S(C)(=O)=O)n2)cc1 [Defactinib] 0
O=C(O)c1ccc2c(c1)nc(Nc1cccc(Cl)c1)c1ccncc12 [Silmitasertib] 0
O=C(Nc1cnn2ccc(N3CCC[C@@H]3c3cc(F)ccc3F)nc12)N1CC[C@H](O)C1 [Larotrectinib] 0
COc1cc2nccc(Oc3ccc(NC(=O)C4(C(=O)Nc5ccc(F)cc5)CC4)cc3)c2cc1OC [Cabozantinib (S-malate)] 0
CN(C)C(=N)NC(=N)N [Metformin (hydrochloride)] 0
COc1ccnc(C[S+]([O-])c2nc3cc(-n4cccc4)ccc3[nH]2)c1C (stereo not given) [Ilaprazole (sodium)] 0
C#Cc1cccc(Nc2ncnc3cc4c(cc23)OCCOCCOCCO4)c1 [Icotinib (Hydrochloride)] 0
CC(C)NC[C@@H](C(=O)N1CCN(c2ncnc3c2[C@H](C)C[C@H]3O)CC1)c1ccc(Cl)cc1 [Ipatasertib] 0
CC(=O)c1c(C)c2cnc(Nc3ccc(N4CCNCC4)cn3)nc2n(C2CCCC2)c1=O [Palbociclib (monohydrochloride)] 0
C#Cc1cccc(Nc2ncnc3cc(OCCOC)c(OCCOC)cc23)c1 [Erlotinib] 0

Two compounds drawn at random from those above:
kinase-Nluc reporter destabilization hit call, inactive:
CC(C)NC[C@@H](C(=O)N1CCN(c2ncnc3c2[C@H](C)C[C@H]3O)CC1)c1ccc(Cl)cc1 [Ipatasertib] 0
CC(=O)c1c(C)c2cnc(Nc3ccc(N4CCNCC4)cn3)nc2n(C2CCCC2)c1=O [Palbociclib (monohydrochloride)] 0
